Measured values taken from PubChem BioAssay AID192 (DTP/NCI, 2004).
The list is a part of this screen's results and no random one: it is rich in T/C values a quarter to a half above the control, in often repeated tests (any T/C) and in doses without a T/C. Further doses and runs are listed elsewhere. T/C: endpoint of the treated group in % of that of the vehicle group. Some doses have a count of surviving animals in place of a T/C: the source files T/C as zero there, which appears to mark a toxic dose or a test without result, not a measured value. Some doses without a T/C left all or most animals alive at the check, yet need not have been tolerated: survival well below the control is almost never listed, so the zero probably covers shortened survival too. Survivors were counted at the toxicity check, usually on the fifth day, unless a day is given; later deaths do not show. Schedule codes are those of the source, read here as Q, the interval in days (D) or hours (H), X, the number of doses. Marks such as (2×) give the number of equal values in this list. Some doses were run more than once; the values are given in rising order. For survival time, the PubChem record calls one and a half times the control and up active, and a quarter to a half above the control has no call in these data; cut-offs in other NCI protocols can differ.

Tested on: BDF1 mice, B16 melanoma ip, median survival T/C
Assay: NCI In Vivo Anticancer Drug Screen. Data for tumor model B16 Melanoma (intraperitoneal) in B6D2F1 (BDF1) mice
Conditions: T/C endpoint: median survival time, higher T/C = longer survival
Summary of the method: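 Compounds were tested in mice carrying transplantable tumors. Survival or tumor size was recorded, and each value is the treated-group measurement (T) divided by that of the vehicle-treated control group (C).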

[1] = dose: 200.0 mg/kg/injection, schedule: Q01DX009 (ip), vehicle: Klucel (hydroxypropylcellulose) (HPC)
[2] = dose: 400.0 mg/kg/injection, schedule: Q01DX009 (ip), vehicle: Klucel (hydroxypropylcellulose) (HPC)
[3] = dose: 50.0 mg/kg/injection, schedule: Q01DX009 (ip), vehicle: Klucel (hydroxypropylcellulose) (HPC)
[4] = dose: 40.0 mg/kg/injection, schedule: Q01DX009 (ip), vehicle: Klucel (hydroxypropylcellulose) (HPC)
[5] = dose: 100.0 mg/kg/injection, schedule: Q01DX009 (ip), vehicle: Klucel (hydroxypropylcellulose) (HPC)

Compound: C=CC(=O)[O][Pb]([CH3])([CH3])[CH3]
- survivor count (dose: 3.0 mg/kg/injection, schedule: Q01DX009 (ip), vehicle: saline with Tween-80): 10 of 10
- survivor count (dose: 6.0 mg/kg/injection, schedule: Q01DX009 (ip), vehicle: saline with Tween-80): 9 of 10

Compound: CCCCCCCCN(C)/N=N/c1nc[nH]c1C(N)=O
- survivor count (dose: 150.0 mg/kg/injection, schedule: Q01DX009 (ip), vehicle: saline with Tween-80): 8 of 8
- survivor count (dose: 300.0 mg/kg/injection, schedule: Q01DX009 (ip), vehicle: saline with Tween-80): 10 of 10

Compound: ClC1=C(Cl)C(Cl)(Cl)C(Cl)(Cl)C1(Cl)Cl
- survivor count [1]: 8 of 10
- survivor count [2]: 8 of 10

Compound: COc1cc(NS(C)(=O)=O)ccc1Nc1c2cccc(C)c2nc2c(C)cccc12
- T/C (dose: 3.13 mg/kg/injection, schedule: Q01DX009 (ip), vehicle: other): 136 % of control
- T/C (dose: 6.25 mg/kg/injection, schedule: Q01DX009 (ip), vehicle: other): 147 % of control
- T/C (dose: 25.0 mg/kg/injection, schedule: Q01DX001 (ip), vehicle: saline sonified): 141 % of control
- survivor count (dose: 50.0 mg/kg/injection, schedule: Q01DX009 (ip), vehicle: saline sonified): 10 of 10
- survivor count (dose: 100.0 mg/kg/injection, schedule: Q01DX009 (ip), vehicle: saline sonified): 9 of 10
- survivor count (dose: 100.0 mg/kg/injection, schedule: Q04DX003 (ip), vehicle: other): 10 of 10
- survivor count (dose: 200.0 mg/kg/injection, schedule: Q04DX003 (ip), vehicle: other): 10 of 10
- survivor count (dose: 400.0 mg/kg/injection, schedule: Q01DX001 (ip), vehicle: saline sonified): 9 of 10

Compound: COc1cc2cc[n+](C)c(Cc3ccccc3)c2cc1OC
- survivor count [3]: 3 of 10

Compound: CC(C)CNN(CC(C)C)C(N)=O
- survivor count (dose: 400.0 mg/kg/injection, schedule: Q01DX009 (ip), vehicle: saline with Tween-80): 3 of 10

Compound: CCC[CH2][Sn]([CH2]CCC)[CH2]CCC.CCC[CH2][Sn]([CH2]CCC)[CH2]CCC
- survivor count (dose: 10.0 mg/kg/injection, schedule: Q01DX009 (ip), vehicle: Klucel (hydroxypropylcellulose) (HPC)): 5 of 6
- survivor count (dose: 20.0 mg/kg/injection, schedule: Q01DX009 (ip), vehicle: Klucel (hydroxypropylcellulose) (HPC)): 2 of 6
- survivor count [4]: 0 of 6

Compound: O=C(O)c1ccc(Nc2c3ccccc3nc3ccccc23)cc1
- T/C (dose: 19.0 mg/kg/injection, schedule: Q01DX009 (ip), vehicle: saline with Tween-80): 129 % of control
- T/C (dose: 29.0 mg/kg/injection, schedule: Q01DX009 (ip), vehicle: saline with Tween-80): 145 % of control
- survivor count (dose: 63.0 mg/kg/injection, schedule: Q01DX009 (ip), vehicle: other): 10 of 10
- survivor count (dose: 66.0 mg/kg/injection, schedule: Q01DX009 (ip), vehicle: Klucel (hydroxypropylcellulose) (HPC)): 10 of 10
- survivor count [5]: 10 of 10
- survivor count (dose: 150.0 mg/kg/injection, schedule: Q01DX009 (ip), vehicle: Klucel (hydroxypropylcellulose) (HPC)): 10 of 10

Compound: COC(=O)[CH](C[N+](=O)[O-])[Hg][Cl] (centres undefined)
- survivor count (dose: 1.6 mg/kg/injection, schedule: Q01DX009 (ip), vehicle: saline with Tween-80): 6 of 6
- survivor count (dose: 25.0 mg/kg/injection, schedule: Q01DX009 (ip), vehicle: saline): 10 of 10
- survivor count (dose: 50.0 mg/kg/injection, schedule: Q01DX009 (ip), vehicle: saline): 8 of 10
- survivor count (dose: 50.0 mg/kg/injection, schedule: Q04DX003 (ip), vehicle: Klucel (hydroxypropylcellulose) (HPC)): 10 of 10
- survivor count (dose: 100.0 mg/kg/injection, schedule: Q01DX009 (ip), vehicle: saline): 6 of 10
- survivor count (dose: 100.0 mg/kg/injection, schedule: Q04DX003 (ip), vehicle: Klucel (hydroxypropylcellulose) (HPC)): 10 of 10
- survivor count (dose: 200.0 mg/kg/injection, schedule: Q04DX003 (ip), vehicle: Klucel (hydroxypropylcellulose) (HPC)): 0 of 10
- survivor count (dose: 400.0 mg/kg/injection, schedule: Q04DX003 (ip), vehicle: Klucel (hydroxypropylcellulose) (HPC)): 0 of 10

Compound: Cc1c2ccc3ccccc3c2c[n+]2ccccc12
- survivor count [4]: 0 of 10

Compound: CN(N)P(=S)(c1ccccc1)N(C)N
- survivor count (dose: 25.0 mg/kg/injection, schedule: Q01DX009 (ip), vehicle: Klucel (hydroxypropylcellulose) (HPC)): 7 of 10

Compound: CC[C@H]1CN2CCc3cc(OC)c(OC)cc3[C@@H]2C[C@@H]1C[C@H]1NCCc2cc(OC)c(OC)cc21
- survivor count (dose: 7.0 mg/kg/injection, schedule: Q01DX009 (ip), vehicle: saline): 9 of 10
- survivor count (dose: 14.0 mg/kg/injection, schedule: Q01DX009 (ip), vehicle: saline): 9 of 10 and 10 of 10
- survivor count (dose: 28.0 mg/kg/injection, schedule: Q01DX009 (ip), vehicle: saline): 0 of 10
- survivor count (dose: 32.7 mg/kg/injection, schedule: Q04DX003 (ip), vehicle: saline): 7 of 8

Compound: N=C(N)NC(=N)Nc1ccc(NC(=O)Nc2ccc(Nc3c4ccccc4nc4cc([N+](=O)[O-])ccc34)cc2)cc1
- survivor count (dose: 12.5 mg/kg/injection, schedule: Q04DX003 (ip), vehicle: water): 10 of 10
- survivor count (dose: 25.0 mg/kg/injection, schedule: Q01DX009 (ip), vehicle: water): 10 of 10
- survivor count (dose: 25.0 mg/kg/injection, schedule: Q04DX003 (ip), vehicle: water): 10 of 10
- survivor count (dose: 50.0 mg/kg/injection, schedule: Q04DX003 (ip), vehicle: water): 10 of 10
- survivor count (dose: 100.0 mg/kg/injection, schedule: Q04DX003 (ip), vehicle: water): 9 of 10
- survivor count (dose: 200.0 mg/kg/injection, schedule: Q04DX003 (ip), vehicle: water): 8 of 10

Compound: CCCCCCC(=O)C(CCCC)(C(=O)OCC)C(=O)OCC
- survivor count [1]: 10 of 10
- survivor count [2]: 10 of 10

Compound: Cc1cccc(NS(=O)(=O)c2ccccc2)c1C
- survivor count [1]: 10 of 10

Compound: O=C(N/N=C/c1ccc(O)cc1O)c1cccnc1
- survivor count (dose: 6.25 mg/kg/injection, schedule: Q01DX009 (ip), vehicle: olive oil, sesame oil, peanut oil): 10 of 10 (2×)
- survivor count (dose: 12.5 mg/kg/injection, schedule: Q01DX009 (ip), vehicle: olive oil, sesame oil, peanut oil): 10 of 10 (2×)
- survivor count (dose: 25.0 mg/kg/injection, schedule: Q01DX009 (ip), vehicle: olive oil, sesame oil, peanut oil): 10 of 10
- survivor count (dose: 50.0 mg/kg/injection, schedule: Q01DX009 (ip), vehicle: olive oil, sesame oil, peanut oil): 9 of 10 and 10 of 10
- survivor count (dose: 100.0 mg/kg/injection, schedule: Q01DX009 (ip), vehicle: olive oil, sesame oil, peanut oil): 9 of 10 and 10 of 10
- survivor count (dose: 200.0 mg/kg/injection, schedule: Q01DX009 (ip), vehicle: olive oil, sesame oil, peanut oil): 1 of 10 and 7 of 10

Compound: CCN(C(=O)CCl)C(C)(C)C(SSSC(c1ccc(Cl)cc1)C(C)(C)N(CC)C(=O)CCl)c1ccc(Cl)cc1 (centres undefined)
- survivor count [3]: 9 of 10
- survivor count [5]: 8 of 10

Compound: Nc1nc2c(ncn2C2OC(CO)C(O)C2O)c(=O)[nH]1 (centres undefined)
- T/C (dose: 200.0 mg/kg/injection, schedule: Q01DX009 (ip), vehicle: suspension in saline): 125 % of control
- T/C (dose: 800.0 mg/kg/injection, schedule: Q01DX009 (ip), vehicle: suspension in saline): 131 % of control

Compound: O=C(CCCN1CC=C(n2c(=O)[nH]c3ccccc32)CC1)c1ccc(F)cc1
- survivor count (dose: 3.12 mg/kg/injection, schedule: Q01DX009 (ip), vehicle: Klucel (hydroxypropylcellulose) (HPC)): 10 of 10
- survivor count (dose: 12.5 mg/kg/injection, schedule: Q01DX009 (ip), vehicle: Klucel (hydroxypropylcellulose) (HPC)): 10 of 10
- survivor count [2]: 2 of 10

Compound: CC(=O)Nc1nc(=O)n(CC(=O)c2cccs2)cc1F
- survivor count [5]: 10 of 10
- survivor count [1]: 10 of 10
- survivor count [2]: 0 of 10
